The target of experiment [1] is T1, AUP1-V5 (human) (UniProt Q9Y679).
T1 sequence: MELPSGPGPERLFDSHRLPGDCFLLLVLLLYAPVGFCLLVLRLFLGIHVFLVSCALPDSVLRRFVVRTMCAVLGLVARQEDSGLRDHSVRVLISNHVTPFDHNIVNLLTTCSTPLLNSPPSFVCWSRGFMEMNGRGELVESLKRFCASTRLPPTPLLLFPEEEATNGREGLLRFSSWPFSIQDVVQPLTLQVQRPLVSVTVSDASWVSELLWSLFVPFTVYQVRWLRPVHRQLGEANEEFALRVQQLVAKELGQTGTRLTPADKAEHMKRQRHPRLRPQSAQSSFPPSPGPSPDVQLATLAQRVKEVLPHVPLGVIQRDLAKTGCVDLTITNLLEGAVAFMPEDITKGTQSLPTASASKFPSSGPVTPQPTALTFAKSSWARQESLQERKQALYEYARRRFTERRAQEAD
Nature of the experiment: co-IP; OKP cells transfected with the Myc-tagged cotransporter and AUP1-V5; lysates precipitated with anti-V5 and protein G beads, blot with anti-Myc.

For experiment [2], the target named is T2, endogenous AUP1 of HEK cells (human (endogenous in HEK)) (UniProt Q9Y679).
T2 sequence: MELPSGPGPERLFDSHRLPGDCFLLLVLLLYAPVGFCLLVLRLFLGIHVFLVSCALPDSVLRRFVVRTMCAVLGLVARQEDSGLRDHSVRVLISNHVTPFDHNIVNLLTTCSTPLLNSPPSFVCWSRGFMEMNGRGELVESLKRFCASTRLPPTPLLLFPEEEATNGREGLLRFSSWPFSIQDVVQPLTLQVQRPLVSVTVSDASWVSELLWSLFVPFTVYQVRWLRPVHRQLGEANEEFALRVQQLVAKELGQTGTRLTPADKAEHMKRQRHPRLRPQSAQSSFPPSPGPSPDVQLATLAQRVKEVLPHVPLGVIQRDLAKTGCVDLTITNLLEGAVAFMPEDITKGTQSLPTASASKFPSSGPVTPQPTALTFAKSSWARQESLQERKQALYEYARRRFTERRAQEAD
Briefly: co-IP; HEK cells expressing Myc-NKCC2; endogenous AUP1 precipitated with anti-AUP1, blot with anti-Myc.

The target in experiment [3] is T1, AUP1-V5 (human). Briefly: co-IP; HEK cells transfected with Myc-NKCC2 and AUP1-V5; lysates precipitated with anti-V5 and protein G beads, blot with anti-Myc.

These are yes or no findings as the source states them, for the method shown. Binding seen in cells or lysates may run through a third protein. Some binding calls cover weakened binding; strength is not graded here. Tags and fused reporters may be left off the sequences shown.

B1: Myc-NCC (protein, UniProt P55017 1-1021)
chain: MAELPTTETPGDATLCSGRFTISTLLSSDEPSPPAAYDSSHPSHLTHSSTFCMRTFGYNTIDVVPTYEHYANSTQPGEPRKVRPTLADLHSFLKQEGRHLHALAFDSRPSHEMTDGLVEGEAGTSSEKNPEEPVRFGWVKGVMIRCMLNIWGVILYLRLPWITAQAGIVLTWIIILLSVTVTSITGLSISAISTNGKVKSGGTYFLISRSLGPELGGSIGLIFAFANAVGVAMHTVGFAETVRDLLQEYGAPIVDPINDIRIIAVVSVTVLLAISLAGMEWESKAQVLFFLVIMVSFANYLVGTLIPPSEDKASKGFFSYRADIFVQNLVPDWRGPDGTFFGMFSIFFPSATGILAGANISGDLKDPAIAIPKGTLMAIFWTTISYLAISATIGSCVVRDASGVLNDTVTPGWGACEGLACSYGWNFTECTQQHSCHYGLINYYQTMSMVSGFAPLITAGIFGATLSSALACLVSAAKVFQCLCEDQLYPLIGFFGKGYGKNKEPVRGYLLAYAIAVAFIIIAELNTIAPIISNFFLCSYALINFSCFHASITNSPGWRPSFQYYNKWAALFGAIISVVIMFLLTWWAALIAIGVVLFLLLYVIYKKPEVNWGSSVQAGSYNLALSYSVGLNEVEDHIKNYRPQCLVLTGPPNFRPALVDFVGTFTRNLSLMICGHVLIGPHKQRMPELQLIANGHTKWLNKRKIKAFYSDVIAEDLRRGVQILMQAAGLGRMKPNILVVGFKKNWQSAHPATVEDYIGILHDAFDFNYGVCVMRMREGLNVSKMMQAHINPVFDPAEDGKEASARVDPKALVKEEQATTIFQSEQGKKTIDIYWLFDDGGLTLLIPYLLGRKRRWSKCKIRVFVGGQINRMDQERKAIISLLSKFRLGFHEVHILPDINQNPRAEHTKRFEDMIAPFRLNDGFKDEATVNEMRRDCPWKISDEEITKNRVKSLRQVRLNEIVLDYSRDAALIVITLPIGRKGKCPSSLYMAWLETLSQDLRPPVILIRGNQENVLTFYCQ
With B1, the binding result in the experiment with AUP1-V5 (human) [1] was “binds”.

B2: Myc-NKCC2 (protein, UniProt P55014 1-1095)
chain: MSVSIPSNSVPSSASRFQVHVINEGHGSAAAVGDSADPPHYEETSFGDEAQNRLRISFRPGNQECYDNFLQTGETAKTDTTFHAYDSHTNTYYLQTFGHNTMDAVPKIEYYRNTGSVSGPKVNRPSLLEIHEQLAKNVTVAPGSADRVANGDGMPGDEQAENKEEDMTGVVKFGWVKGVLVRCMLNIWGVMLFIRLSWIVGEAGIGLGVLIILLSTMVTSITGLSTSAIATNGFVRGGGAYYLISRSLGPEFGGSIGLIFAFANAVAVAMYVVGFAETVVDLLKESDSMMVDPTNDIRIIGSITVVILLGISVAGMEWEAKAQVILLVILLIAIANFFIGTVIPSNNEKKSRGFFNYQASIFAENFGPSFTKGEGFFSVFAIFFPAATGILAGANISGDLEDPQDAIPRGTMLAIFITTVAYIGVAICVAACVVRDATGSMNDTIVSGMNCNGSAACGLGYDFSRCQHEPCQYGLMNNFQVMSMVSGFGPLITAGIFSATLSSALASLVSAPKVFQALCKDNIFKGLQFFAKGYGKNNEPLRGYFLTFVIAMAFILIAELNVIAPIISNFFLASYALINFSCFHASYAKSPGWRPAYGIYNMWVSLFGAILCCAVMFVINWWAAVITYVIELFLYIYVTYKKPDVNWGSSTQALSYVSALDNALELTTVEDHVKNFRPQCIVLTGGPMTRPALLDITHAFTKNSGLCICCEVFVGPRKLCVKEMNSGMAKKQAWLIKNKIKAFYAAVAADCFRDGVRSLLQASGLGRMKPNTLVIGYKKNWRKAPLSELENYVGIIHDAFDFEIGVVIVRISQGFDISPVLQVQDELEKLEQERLALEAAIKDNECEEGKGGIRGLFKKAGKLNITKPAPKKDGNISSIQSMHVGEFNQKLVEASAQFKKKQGKGTIDVWWLFDDGGLTLLIPYILTLRKKWKDCKLRIYVGGKITRIEEEKISMASLLSKFRIKFADIHIIGDINIKPNKESWKVFEEMIEPYRLHESHKDLTTAEKLKRESPWKITDAELEAVKEKSYRQVRLNELLQEHSRAANLIVLSLPVARKGSISDLLYMAWLEILTKNLPPVLLVRGNHKNVLTFYS
On to B2, for which the binding result (in experiment [2]; in the experiment with AUP1-V5 (human) [3]; with AUP1-V5 (human) [1]) was “binds” each time.

For the origin of these results see article PMC10931229.
